In this assay the test system is B6C3F1 mice, ip Sarcoma M5076, median survival T/C. Nature of the assay: NCI In Vivo Anticancer Drug Screen. Data for tumor model Sarcoma M5076 (intraperitoneal) in B6C3F1 mice. The conditions noted are these: T/C endpoint: median survival time, schedule: Q04DX004 (ip), higher T/C = longer survival. How it is done: The antitumor activity of compounds was measured in mice bearing transplantable tumors. Survival or tumor size were measured and the results are expressed as the measurement made in the treated group (T) divided by the measurement made in the vehicle treated control group (C). The tumor model used in this assay is Sarcoma M5076 (intraperitoneal) in B6C3F1 mice

Setting [1] is: dose: 200.0 mg/kg/injection, vehicle: Klucel (hydroxypropylcellulose) (HPC).
Setting [2] is: dose: 400.0 mg/kg/injection, vehicle: Klucel (hydroxypropylcellulose) (HPC).
The mark [3] stands for this setting: dose: 800.0 mg/kg/injection, vehicle: Klucel (hydroxypropylcellulose) (HPC).

The list does not hold the whole screen: it gathers tests that were run many times, whatever their T/C, doses with no T/C, and many T/C values between a quarter and a half above the control. Other doses and runs of a compound stand elsewhere. T/C gives the treated animals as a percentage of the vehicle group. Some entries give survivors of the animals treated and no T/C: the source holds a T/C of zero for them, seemingly a mark for toxic or unscored doses. Some doses without a T/C left all or most animals alive at the check, yet need not have been tolerated: the source hardly ever lists a survival T/C far under the control, and the zero likely stands for such cases as well. Survivors were counted at the toxicity check, usually on the fifth day, unless a day is given; later deaths do not show. Schedule codes are those of the source, taken here to give the interval after Q, in days (D) or hours (H), and the number of doses after X. Some doses were run more than once; their values stand side by side, smallest first. For survival time, this PubChem deposit counts one and a half times the control or more as active, and values a quarter to a half above the control carry no call in these data; other NCI protocols may use other cut-offs. Some T/C values carry the count of animals alive at the toxicity check (mostly the fifth day); without a count, all were alive then.

For the compound `O=C(O)C(O)C(O)C1[O][Sb][O]C1C(=O)O` (stereo not given), the T/C runs as follows: (dose: 18.75 mg/kg/injection, vehicle: saline) 131 % of control [9 of 10 alive on day 14]; (dose: 37.5 mg/kg/injection, vehicle: saline) 132 % of control [9 of 10 alive on day 14]; (dose: 75.0 mg/kg/injection, vehicle: saline) 132 % of control [9 of 10 alive on day 14]. The survivor count (dose: 150.0 mg/kg/injection, vehicle: saline) was 0 of 10 on day 14, 2 of 7 on day 14, 3 of 10 on day 14 and the survivor count (dose: 300.0 mg/kg/injection, vehicle: saline) is 0 of 10 on day 14.
For the compound `N#CC1C(=O)NC(=S)NC1c1ccc(Cl)cc1` (stereo not given), the survivor count runs as follows: under setting [1], 9 of 10 on day 14; under setting [2], 4 of 10 on day 14; under setting [3], 0 of 10 on day 14.
Turning to `O=C(Nc1cccnc1)c1ccc([N+](=O)[O-])s1`, the survivor count runs as follows: (dose: 50.0 mg/kg/injection, vehicle: saline) 10 of 10 on day 14; (dose: 100.0 mg/kg/injection, vehicle: saline) 10 of 10 on day 14; (dose: 200.0 mg/kg/injection, vehicle: saline) 10 of 10 on day 14; (dose: 400.0 mg/kg/injection, vehicle: saline) 10 of 10 on day 14; (dose: 800.0 mg/kg/injection, vehicle: saline) 6 of 10 on day 14.
Regarding `CC(=O)C1C(=O)C(=O)N(Cc2ccccc2)C1=O` (stereo not given), where the note is “dose: 750.0 mg/kg/injection, vehicle: Klucel (hydroxypropylcellulose) (HPC)”, the survivor count is listed as 6 of 10 on day 14.
With `NCCSC(C[N+](=O)[O-])c1ccccc1Cl` (stereo not given), where the note is “dose: 100.0 mg/kg/injection, vehicle: saline with Tween-80”, the T/C is 128 % of control. Also, under “dose: 200.0 mg/kg/injection, vehicle: saline with Tween-80”, the survivor count is given as 0 of 10 on day 14.
As for `O=C(CSc1nnc(-c2ccc(Cl)cc2)s1)Nc1nccs1`, the survivor count is recorded as 10 of 10 on day 14 (dose: 75.0 mg/kg/injection, vehicle: saline with Tween-80); 10 of 10 on day 14 (dose: 150.0 mg/kg/injection, vehicle: saline with Tween-80); 10 of 10 on day 14 (dose: 300.0 mg/kg/injection, vehicle: saline with Tween-80); 8 of 10 on day 14 (dose: 600.0 mg/kg/injection, vehicle: saline with Tween-80).
Consider `COC1C(CO)OC(n2cnc3c(=S)nc(N)[nH]c32)C1O` (stereo not given), for which the survivor count under setting [2] is recorded as 3 of 10 on day 9 and the survivor count under setting [3] was 2 of 10 on day 9.
Take `CCOC(=O)C(N)CSC(=O)NC` (stereo not given): for the setting “dose: 600.0 mg/kg/injection, vehicle: saline”, the T/C is 127 [9 of 10 alive on day 14] and 135 % of control [9 of 10 alive on day 14]. Besides, the survivor count (dose: 1000.0 mg/kg/injection, vehicle: saline) is 0 of 10 on day 14 and 1 of 10 on day 14; the survivor count (dose: 1666.67 mg/kg/injection, vehicle: saline) is 0 of 10 on day 14.
For `Cc1c2c(ccc3ccccc32)c[n+]2ccccc12`, the survivor count by setting is: (dose: 12.0 mg/kg/injection, vehicle: saline with Tween-80) 3 of 10 on day 14 and 6 of 10 on day 14; (dose: 24.0 mg/kg/injection, vehicle: saline with Tween-80) 0 of 10 on day 14 and 5 of 10 on day 14.
Take `Cc1ccc(NN=O)nc1`: the T/C by setting is: (dose: 6.25 mg/kg/injection, vehicle: water) 135 % of control; (dose: 12.5 mg/kg/injection, vehicle: water) 125 and 144 % of control; (dose: 25.0 mg/kg/injection, vehicle: water) 135 % of control [8 of 10 alive on day 14]. Further, the survivor count (dose: 50.0 mg/kg/injection, vehicle: water) was 0 of 10 on day 14 and the survivor count (dose: 100.0 mg/kg/injection, vehicle: water) is 0 of 10 on day 14.
With `N#CC1C(=O)NC(=O)C(C#N)C1C(Cl)(Cl)Cl` (stereo not given), the survivor count runs as follows: under setting [1], 10 of 10 on day 14; under setting [2], 10 of 10 on day 14; under setting [3], 1 of 10 on day 14.

The record behind these values is PubChem BioAssay AID292 (DTP/NCI, 2004).
